Values of other authors, collected in patent US20110059177A1, “Cardioplegia Solution for Cardiac Surgery” (priority 2008, published 2011).
At least one compound was matched to its structure with a doubt left.

System: axotomized retinal ganglion cells (RGCs)
Details: systemic administration

## CN(C)c1ccc(O)c2c1C[C@H]1C[C@H]3[C@H](N(C)C)C(O)=C(C(N)=O)C(=O)[C@@]3(O)C(O)=C1C2=O [Minocycline]
  death of axotomized retinal ganglion cells: delays the death
